These are yes or no findings as the source states them, for the method shown. Some binding calls cover weakened binding; strength is not graded here.
Biological target: T1, wild type IL-7, yeast-displayed (human) (UniProt P13232)
T1 sequence: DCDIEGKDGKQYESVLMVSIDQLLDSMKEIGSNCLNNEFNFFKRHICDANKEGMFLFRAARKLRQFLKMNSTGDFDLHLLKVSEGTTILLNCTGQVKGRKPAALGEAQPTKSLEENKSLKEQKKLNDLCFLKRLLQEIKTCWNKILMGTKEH
Test: flow cytometry on cells; yeast display: induced yeast in 1X PBS incubated with 50 nM His-tagged IL7Rα for 30 min at 4°C; display read by anti-HA, bound receptor by anti-His antibody; only the binder purified

B1: recombinant murine IL-7 receptor alpha (receptor, UniProt P16872 21-239)
chain: ESGNAQDGDLEDADADDHSFWCHSQLEVDGSQHLLTCAFNDSDINTANLEFQICGALLRVKCLTLNKLQDIYFIKTSEFLLIGSSNICVKLGQKNLTCKNMAINTIVKAEAPSDLKVVYRKEANDFLVTFNAPHLKKKYLKKVKHDVAYRPARGESNWTHVSLFHTRTTIPQRKLRPKAMYEIKVRSIPHNDYFKGFWSEWSPSSTFETPEPKNQGGWD
With B1 the binding was “binds”.

— publication PMC12810954, “Targeted computational design of an interleukin-7 superkine with enhanced folding efficiency and immunotherapeutic efficacy” (eLife, 2026)
